Data: PubChem BioAssay AID2685 (National Center for Advancing Translational Sciences (NCATS), 2010)
The whole screen tested about 320,000 compounds, of which about 2,100 (0.66%) were called active. Inconclusive means that the source gave no clear call. Such entries were picked first, then a sample of the others. The call rests on the fitted dose curve; in most records, active means well fitted inhibition curve with a large enough effect in the signal ratio, with a control signal flat (not every such curve was filed as active); inconclusive means small, poorly fitted or top-dose-only effect, or effect the other way, or a change in a side signal; inactive means flat fitted curve, though single readings scatter; the % refers to the signal ratio. Potencies beside an inconclusive call are fits to weak or partial responses and may not hold up.

Experiment: qHTS Assay for Lipid Storage Modulators in Drosophila S3 Cells
Conditions: BODIPY lipid droplet fluorescence, 18-24 h, cells fed with added oleic acid; lipid storage change, negative = inhibition: at 46.1 µM (top of the series) unless noted
Outline: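 Laser-scanning cytometry quantifies lipid droplet accumulation (500–530 nm total intensity; droplet/cell object ratio) in oleic acid-fed (400 uM added) Drosophila S3 cells treated with a concentration series. 20 uM Triacsin C defined 100% inhibition.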
On the % scale 0 is the no-effect control and ±100 the full control effect; potency means the concentration at half of the fitted maximal effect.

Lipid storage change, negative = inhibition, inactive:
O=C(NC1CC1)c1ccc(S(=O)(=O)NCC2CCCCC2)cc1 1.43%, CCC(Sc1nc2ccccc2o1)C(=O)O (stereo not drawn) 1.03%, O=C(Nc1ccc(N2CCOCC2)cc1)c1cccnc1 6.23%, CCOc1ccc(/C=N/NC2=NCCCCC2)cc1 3.04%

Lipid storage change, negative = inhibition, inconclusive:
Clc1ccccc1CSc1nc2ccncc2[nH]1 -52%, COCCCN1C(=O)N(c2ccc(F)cc2)C(=O)C1CC(=O)Nc1ccccc1 (stereo not drawn) 37.9%, COc1ccc(C(CNC(=O)COc2ccc(Br)cc2F)N2CCCC2)cc1 (stereo not drawn) -1.04%, Cc1ccc(-c2cc(C(=O)N/N=C/C(Br)=C/c3ccccc3)n[nH]2)o1 59.3%, Cc1coc2cc3oc(=O)c(CCC(=O)NCCCN4CCOCC4)c(C)c3cc12 30.1%, OCCCc1nc2n(n1)C(c1cccs1)C=C(c1ccccc1)N2 (stereo not drawn) -28.1%, CC(NC(=O)c1ccc(NC2=NC3CS(=O)(=O)CC3S2)cc1)c1ccccc1 (stereo not drawn) 0.865%, COc1ccccc1N1CCN(CC(=O)Nc2ccccc2C(=O)NCCc2ccccc2)CC1 26.2%, O=C(/C=C/c1ccccc1)Nc1sc2c(c1C(=O)O)CCC2 -6.63%, O=C(O)c1ccccc1S(=O)(=O)CC(=O)N1CCCCC1 -77.3%, CC(C)(C)OC(=O)N1CCC2(CC1)Oc1ccc(F)cc1C(=O)C21CC(c2cccnc2)=NO1 (stereo not drawn) 15.6%, COc1ccccc1N(C)S(=O)(=O)c1ccc(C(=O)OCC(N)=O)cc1 -15.7%, CCOc1ccc(N(C)S(=O)(=O)c2ccc(C)c(C(=O)Nc3nnc(C4CC4)s3)c2)cc1 10.7%, CCCCCc1nc2c(c(=O)c3ccccc3n2C)c(=O)n1Cc1ccc(OC)cc1 14.7%, COc1cc(OC)nc(NC(=O)NS(=O)(=O)c2ccc(OC(F)(F)F)cc2)n1 9.7%, Cc1nn(C)cc1[C@@H]1C[C@H]2CN(Cc3cccc(Cl)c3)C(=O)[C@]23CCCN13 42.6%, Cc1ccc(Cl)cc1N(C(=O)c1csnn1)C(C(=O)NC1CCCC1)c1ccco1 (stereo not drawn) 10.6%, CCCn1c(=O)c(C(=O)NCc2ccc(OC)c(OC)c2)c(O)c2ccccc21 13.5%, COc1ccc(S(=O)(=O)N2CCN(CCCOc3ccc(F)cc3)CC2)cc1OC 5.96%, C=CCN=C1N[C@@H](c2ccccc2)C(C(=O)OC)=C(C)N1CC 26.2%, Cc1cccn2c(=O)c3cc(C(=O)NC4CCCC4)c(=N)n(C4CCCCC4)c3nc12 15.6%, COC(=O)C(C)Sc1nc2c(cnn2-c2ccc(C)cc2)c(=O)[nH]1 (stereo not drawn) -20.6%, CCOc1ccc(CCNC(=O)c2ccc(N3CCCC3=O)cc2)cc1OCC -41.5%, Cc1c(C(=O)N2CCN(c3ccccc3)CC2)sc2nc3n(c(=O)c12)CCC3 24.7%, CCOC(=O)C1CCN(C(=O)CNC(=O)c2nn(-c3ccc(OC)cc3OC)c(=O)c3ccccc23)CC1 -7.85%, O=C(CCCN1C(=O)c2ccccc2C1=O)Nc1ccccc1 -0.927%, CCCCCCc1c(C)nc(-n2[nH]c(C)c(CCO)c2=O)[nH]c1=O 30.7% [at 9.22 µM], C=CCn1c(SCc2ccccc2F)nc2cc(C(=O)O)ccc2c1=O -13.4%, Cc1ccc(S(=O)(=O)N(Cc2cc3cc4c(cc3[nH]c2=O)OCCO4)CC2CCCO2)cc1 (stereo not drawn) -15.8%

Potency, inconclusive:
COC(=O)C(CC(C)C)NC(=O)CSc1nc(-c2ccccc2)c(C#N)c(=O)[nH]1 (stereo not drawn) 731 nM [falling, full curve], CCN(CC(=O)N1CCCC1)S(=O)(=O)c1ccc(F)cc1 29100 nM [activator, single point], Cc1ccc(NC(=O)CSc2nc3ccccc3nc2N2CCOCC2)cc1 29100 nM [falling, single point], Cc1cc(C)cc(C(=O)NC(CC(N)=O)c2ccc(N3CCC(N4CCCCC4)CC3)c([N+](=O)[O-])c2)c1 (stereo not drawn) 58 nM [activator, full curve, poor fit], CC(C)c1csc(CN2CCC(n3nccc3NC(=O)Cc3ccccc3)CC2)n1 29100 nM [falling, single point], Fc1cccc(CSc2ncnc3c2oc2ccccc23)c1 23100 nM [activator, single point], O=C(NCc1ccccc1CN1CCCC1)c1ccc(Cl)c(N2CCCC2=O)c1 1160 nM [activator, full curve, poor fit], Cc1ccc(C2=NN(S(C)(=O)=O)C(c3ccc4c(c3)OCO4)C2)cc1 (stereo not drawn) 820 nM [activator, single point], COc1ccc(-c2nc(CS(=O)CC(=O)N3CCc4ccccc4C3)c(C)o2)cc1 (stereo not drawn) 2910 nM [rising, single point], Cc1cc2cc(CN(CCN3CCOCC3)C(=O)Nc3ccccc3F)c(=O)[nH]c2cc1C 580 nM [activator, single point], COc1ccc(-c2csc(N(C)C(=O)c3ccco3)n2)cc1 6510 nM [falling, single point], CCn1c(SCC(=O)Nc2cccc(NC(=O)c3ccco3)c2)nnc1-c1cccs1 1300 nM [activator, partial curve], CCOc1ccc(NC(=O)CCc2nnc3ccc(N4CCC5(CC4)OCCO5)nn23)cc1 4.1 nM [activator, full curve, poor fit], Oc1ccc(Nc2nc(-c3ccccc3O)nc3ccccc23)cc1 25900 nM [activator, single point]

outcome, inactive:
COc1ccc(COC(=O)c2sc3nc4n(c(=O)c3c2C)CCC4)cc1 inactive [at 46.1 µM]
